The list shows a part of the results.
Key:
Assay in all cases: log2 fold change, soluble protein after heating vs DMSO (PISA); higher = thermal stabilisation; K562 lysate, 10 uM; active = over 0.2 and 3.5 SD of the protein, either way, in both replicates (recomputed)
[1] = compound: NCC(=O)Nc1ccc(-n2nc(C(F)(F)F)cc2-c2ccc3c(ccc4ccccc43)c2)cc1
Procedure, shortened: (§1)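 Quantification was by TMTpro 16plex LC-MS/MS with equalised channel sums, applied to the supernatant after 21,000xg for 90 min. Samples were crude K562 extract at 1 mg/mL protein in PBS pH 7.4 with 1 mM MgCl2, treated with 10 μM compound for 30 min, heated for 3 min across 48°C-58°C, pooled and brought to 0.5% NP-40 at 4°C. Values are log-two fold changes in thermal stability relative to solvent controls, from duplicates.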

Sequences of proteins named here, by UniProt entry; tags and fusion partners are left off. A change or cut given only in a name is not applied to a line headed by its entry.
UniProt Q14676: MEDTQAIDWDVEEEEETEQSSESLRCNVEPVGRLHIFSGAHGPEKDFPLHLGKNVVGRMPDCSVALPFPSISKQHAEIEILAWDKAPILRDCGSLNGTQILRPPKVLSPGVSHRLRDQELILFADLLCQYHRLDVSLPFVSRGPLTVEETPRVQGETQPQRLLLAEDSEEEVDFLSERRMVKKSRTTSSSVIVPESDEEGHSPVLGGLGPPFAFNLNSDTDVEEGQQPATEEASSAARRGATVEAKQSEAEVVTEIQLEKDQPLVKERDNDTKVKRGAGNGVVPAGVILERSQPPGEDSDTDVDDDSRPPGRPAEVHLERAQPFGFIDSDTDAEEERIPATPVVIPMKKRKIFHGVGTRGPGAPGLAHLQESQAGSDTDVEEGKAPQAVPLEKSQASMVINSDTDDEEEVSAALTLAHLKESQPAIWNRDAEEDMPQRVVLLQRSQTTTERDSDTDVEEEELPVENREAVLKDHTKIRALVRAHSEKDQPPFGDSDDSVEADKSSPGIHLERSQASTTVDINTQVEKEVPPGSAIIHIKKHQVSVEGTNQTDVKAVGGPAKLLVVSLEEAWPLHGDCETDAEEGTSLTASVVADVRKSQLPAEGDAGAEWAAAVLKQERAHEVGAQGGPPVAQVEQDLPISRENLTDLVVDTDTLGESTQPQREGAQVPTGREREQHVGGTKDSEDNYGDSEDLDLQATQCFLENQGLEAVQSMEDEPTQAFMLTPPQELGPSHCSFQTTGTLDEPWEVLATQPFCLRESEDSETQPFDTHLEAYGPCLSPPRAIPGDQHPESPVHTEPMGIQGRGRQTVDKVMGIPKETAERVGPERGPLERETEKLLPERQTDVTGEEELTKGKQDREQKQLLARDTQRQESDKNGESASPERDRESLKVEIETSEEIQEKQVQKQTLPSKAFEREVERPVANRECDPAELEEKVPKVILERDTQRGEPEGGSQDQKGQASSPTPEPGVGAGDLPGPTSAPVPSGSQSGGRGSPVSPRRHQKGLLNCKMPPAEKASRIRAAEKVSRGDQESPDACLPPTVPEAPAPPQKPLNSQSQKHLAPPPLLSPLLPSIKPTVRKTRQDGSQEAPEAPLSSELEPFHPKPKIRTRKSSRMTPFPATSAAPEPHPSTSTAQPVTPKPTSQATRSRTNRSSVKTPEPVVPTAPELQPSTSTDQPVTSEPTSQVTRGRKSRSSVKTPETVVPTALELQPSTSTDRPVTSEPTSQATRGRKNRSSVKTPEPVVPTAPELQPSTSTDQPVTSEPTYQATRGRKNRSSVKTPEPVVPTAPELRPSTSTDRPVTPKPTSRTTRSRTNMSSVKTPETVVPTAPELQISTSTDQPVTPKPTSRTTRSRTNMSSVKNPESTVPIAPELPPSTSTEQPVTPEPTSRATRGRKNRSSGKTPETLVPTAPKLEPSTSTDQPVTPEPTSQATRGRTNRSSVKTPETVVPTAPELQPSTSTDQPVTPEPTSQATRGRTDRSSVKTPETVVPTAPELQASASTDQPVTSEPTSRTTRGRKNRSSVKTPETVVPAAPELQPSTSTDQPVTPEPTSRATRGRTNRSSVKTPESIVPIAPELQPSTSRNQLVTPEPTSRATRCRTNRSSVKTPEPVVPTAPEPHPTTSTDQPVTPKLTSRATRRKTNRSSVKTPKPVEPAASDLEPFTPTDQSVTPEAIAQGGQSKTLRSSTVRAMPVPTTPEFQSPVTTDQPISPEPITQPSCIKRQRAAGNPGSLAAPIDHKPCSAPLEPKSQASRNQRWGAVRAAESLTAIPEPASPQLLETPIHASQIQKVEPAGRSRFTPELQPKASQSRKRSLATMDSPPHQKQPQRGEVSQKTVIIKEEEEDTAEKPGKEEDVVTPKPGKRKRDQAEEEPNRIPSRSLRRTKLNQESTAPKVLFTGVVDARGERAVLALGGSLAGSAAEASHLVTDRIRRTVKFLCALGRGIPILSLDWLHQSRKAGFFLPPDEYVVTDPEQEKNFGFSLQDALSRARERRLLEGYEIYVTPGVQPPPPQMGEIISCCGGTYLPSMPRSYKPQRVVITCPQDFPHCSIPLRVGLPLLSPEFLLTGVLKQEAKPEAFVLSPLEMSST
UniProt O75448: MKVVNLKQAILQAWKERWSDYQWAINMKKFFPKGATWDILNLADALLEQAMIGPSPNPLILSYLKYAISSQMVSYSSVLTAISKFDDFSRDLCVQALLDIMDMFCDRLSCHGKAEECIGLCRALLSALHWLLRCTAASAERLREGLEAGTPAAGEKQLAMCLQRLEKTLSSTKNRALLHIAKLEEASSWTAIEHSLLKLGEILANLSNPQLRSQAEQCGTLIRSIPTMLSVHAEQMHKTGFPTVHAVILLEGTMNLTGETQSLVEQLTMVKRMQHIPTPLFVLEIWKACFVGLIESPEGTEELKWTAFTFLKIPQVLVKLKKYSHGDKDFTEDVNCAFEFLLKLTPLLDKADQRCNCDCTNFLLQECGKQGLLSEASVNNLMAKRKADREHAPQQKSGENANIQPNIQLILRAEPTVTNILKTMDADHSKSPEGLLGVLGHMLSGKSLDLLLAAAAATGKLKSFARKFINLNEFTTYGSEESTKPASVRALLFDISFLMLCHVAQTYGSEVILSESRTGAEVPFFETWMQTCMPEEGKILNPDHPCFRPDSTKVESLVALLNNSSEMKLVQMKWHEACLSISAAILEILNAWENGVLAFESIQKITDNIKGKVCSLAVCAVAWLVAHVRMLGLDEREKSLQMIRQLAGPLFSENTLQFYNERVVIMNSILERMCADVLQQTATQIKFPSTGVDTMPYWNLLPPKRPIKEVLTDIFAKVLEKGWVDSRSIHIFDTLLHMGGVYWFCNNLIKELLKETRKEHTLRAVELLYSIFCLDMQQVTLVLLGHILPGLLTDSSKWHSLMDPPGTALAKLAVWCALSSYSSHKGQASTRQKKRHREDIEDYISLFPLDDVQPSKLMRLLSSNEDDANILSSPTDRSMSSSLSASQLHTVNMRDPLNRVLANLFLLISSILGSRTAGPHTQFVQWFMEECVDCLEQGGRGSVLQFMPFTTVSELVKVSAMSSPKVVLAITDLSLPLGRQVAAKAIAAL
UniProt Q9NPJ6: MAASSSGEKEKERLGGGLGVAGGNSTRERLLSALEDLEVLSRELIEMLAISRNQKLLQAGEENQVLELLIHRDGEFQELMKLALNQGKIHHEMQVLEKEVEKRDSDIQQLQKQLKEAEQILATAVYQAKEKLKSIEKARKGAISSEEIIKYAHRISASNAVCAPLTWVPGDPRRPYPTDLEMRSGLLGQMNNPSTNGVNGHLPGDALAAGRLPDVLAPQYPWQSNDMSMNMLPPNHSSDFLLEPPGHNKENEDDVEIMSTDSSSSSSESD
UniProt Q9UBB5, whole entry, looked up: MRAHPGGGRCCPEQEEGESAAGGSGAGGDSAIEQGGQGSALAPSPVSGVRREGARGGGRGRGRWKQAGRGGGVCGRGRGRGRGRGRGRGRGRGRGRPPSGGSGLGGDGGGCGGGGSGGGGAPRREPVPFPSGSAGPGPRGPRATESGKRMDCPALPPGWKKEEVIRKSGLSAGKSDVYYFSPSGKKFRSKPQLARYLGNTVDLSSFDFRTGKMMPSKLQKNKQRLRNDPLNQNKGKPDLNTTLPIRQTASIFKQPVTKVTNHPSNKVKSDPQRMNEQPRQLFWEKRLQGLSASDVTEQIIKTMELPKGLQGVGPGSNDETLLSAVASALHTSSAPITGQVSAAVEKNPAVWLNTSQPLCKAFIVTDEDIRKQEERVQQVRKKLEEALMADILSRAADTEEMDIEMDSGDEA
UniProt Q96AQ8: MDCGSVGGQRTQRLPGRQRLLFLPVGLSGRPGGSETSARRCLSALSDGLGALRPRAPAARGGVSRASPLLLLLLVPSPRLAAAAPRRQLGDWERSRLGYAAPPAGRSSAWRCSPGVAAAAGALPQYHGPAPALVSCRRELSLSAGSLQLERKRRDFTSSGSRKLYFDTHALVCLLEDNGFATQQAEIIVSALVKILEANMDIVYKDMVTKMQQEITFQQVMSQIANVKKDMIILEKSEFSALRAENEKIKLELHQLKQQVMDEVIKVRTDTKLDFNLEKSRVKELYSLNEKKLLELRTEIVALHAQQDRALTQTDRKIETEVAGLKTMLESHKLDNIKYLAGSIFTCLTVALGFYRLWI
UniProt O95402: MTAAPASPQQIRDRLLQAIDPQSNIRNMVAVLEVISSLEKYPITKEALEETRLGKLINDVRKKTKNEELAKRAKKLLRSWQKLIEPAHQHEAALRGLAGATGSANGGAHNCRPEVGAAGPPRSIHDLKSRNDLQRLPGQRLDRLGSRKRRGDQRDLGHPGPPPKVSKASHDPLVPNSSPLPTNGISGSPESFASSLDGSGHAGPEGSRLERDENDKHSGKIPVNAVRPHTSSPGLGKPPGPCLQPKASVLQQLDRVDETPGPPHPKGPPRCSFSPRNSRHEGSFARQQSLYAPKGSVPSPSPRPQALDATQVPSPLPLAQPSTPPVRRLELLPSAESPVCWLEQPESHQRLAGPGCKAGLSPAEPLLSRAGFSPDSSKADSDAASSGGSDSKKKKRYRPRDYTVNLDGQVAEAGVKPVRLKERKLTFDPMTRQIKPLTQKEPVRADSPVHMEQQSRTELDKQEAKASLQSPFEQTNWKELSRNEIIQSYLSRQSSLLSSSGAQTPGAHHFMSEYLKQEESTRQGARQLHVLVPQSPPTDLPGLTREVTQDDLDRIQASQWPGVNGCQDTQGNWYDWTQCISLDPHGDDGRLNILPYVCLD
UniProt Q96PE7: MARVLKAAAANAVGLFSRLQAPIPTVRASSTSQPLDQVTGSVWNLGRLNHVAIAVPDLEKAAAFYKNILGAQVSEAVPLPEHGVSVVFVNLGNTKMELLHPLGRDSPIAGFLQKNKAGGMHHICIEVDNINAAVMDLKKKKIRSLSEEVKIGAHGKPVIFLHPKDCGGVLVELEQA
UniProt Q8NE86: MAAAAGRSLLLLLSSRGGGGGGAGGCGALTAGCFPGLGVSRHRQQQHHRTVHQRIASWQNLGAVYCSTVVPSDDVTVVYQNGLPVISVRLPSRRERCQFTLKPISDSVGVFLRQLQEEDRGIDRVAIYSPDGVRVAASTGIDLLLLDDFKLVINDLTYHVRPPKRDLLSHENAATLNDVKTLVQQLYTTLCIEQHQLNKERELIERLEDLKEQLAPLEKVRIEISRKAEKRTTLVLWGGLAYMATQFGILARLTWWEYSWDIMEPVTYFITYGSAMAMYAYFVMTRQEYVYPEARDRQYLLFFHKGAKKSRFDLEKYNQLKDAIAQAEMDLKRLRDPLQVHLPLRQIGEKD
UniProt P23368: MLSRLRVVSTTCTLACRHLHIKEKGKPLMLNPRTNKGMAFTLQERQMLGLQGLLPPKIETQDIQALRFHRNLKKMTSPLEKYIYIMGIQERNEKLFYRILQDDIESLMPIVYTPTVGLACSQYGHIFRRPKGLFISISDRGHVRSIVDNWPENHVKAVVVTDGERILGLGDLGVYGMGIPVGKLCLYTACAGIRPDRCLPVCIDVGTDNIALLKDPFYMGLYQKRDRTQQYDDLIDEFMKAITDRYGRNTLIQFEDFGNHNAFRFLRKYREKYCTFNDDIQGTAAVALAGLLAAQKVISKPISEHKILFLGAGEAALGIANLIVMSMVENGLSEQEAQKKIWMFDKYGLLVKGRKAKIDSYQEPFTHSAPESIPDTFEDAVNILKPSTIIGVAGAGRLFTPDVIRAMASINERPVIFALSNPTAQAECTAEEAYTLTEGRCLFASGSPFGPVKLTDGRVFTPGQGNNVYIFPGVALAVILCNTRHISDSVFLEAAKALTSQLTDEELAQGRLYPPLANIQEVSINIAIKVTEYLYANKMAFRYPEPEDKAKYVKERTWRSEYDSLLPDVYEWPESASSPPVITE

vorinostat = compound: O=C(CCCCCCC(=O)Nc1ccccc1)NO [vorinostat]
Procedure, shortened: as §1

silmitasertib = compound: O=C(O)c1ccc2c(c1)nc(Nc1cccc(Cl)c1)c1ccncc12 [silmitasertib]
Procedure, shortened: as §1

[2] = compound: O=C1NC(=O)C(c2cnc3ccccn23)=C1c1cn2c3c(cc(F)cc13)CN(C(=O)N1CCCCC1)CC2
Procedure, shortened: as §1

entospletinib = compound: c1cn2cc(-c3ccc4cn[nH]c4c3)nc(Nc3ccc(N4CCOCC4)cc3)c2n1 [entospletinib]
Procedure, shortened: as §1

Target	log2 fold change [1]	log2 fold change (vorinostat)	log2 fold change (silmitasertib)	log2 fold change [2]	log2 fold change (entospletinib)
MDC1 (UniProt Q14676)	inactive: 0.042	inactive: 0.062	inactive: -0.021	inactive: -0.028	inactive: -0.007
MED24 (UniProt O75448)	inactive: -0.009	inactive: -0.17	inactive: -0.019	inactive: 0.017	inactive: -0.059
MED4 (UniProt Q9NPJ6)	inactive: -0.005	inactive: 0.054	inactive: 0	inactive: -0.012	inactive: 0.016
MBD2 (UniProt Q9UBB5)	inactive: 0.018	active: -0.244	inactive: 0.017	inactive: -0.022	inactive: 0.022
MCUR1 (UniProt Q96AQ8)	inactive: 0.046	inactive: 0.09	inactive: -0.071	inactive: 0.006	inactive: -0.035
MED26 (UniProt O95402)	inactive: -0.136	inactive: 0.214	inactive: -0.101	inactive: 0.064	inactive: -0.102
MCEE (UniProt Q96PE7)	inactive: -0.045	inactive: 0.093	inactive: 0.035	inactive: 0.005	inactive: -0.12
MCU (UniProt Q8NE86)	inactive: -0.037	inactive: 0.04	inactive: 0	inactive: -0.072	inactive: -0.016
ME2 (UniProt P23368)	inactive: -0.009	inactive: 0.156	inactive: 0.052	inactive: 0.005	inactive: -0.015
